Consider three sequences from PMC4513854.

The chains behind the UniProt entries cited, without tags or fusion partners.
UniProt P23511, whole entry: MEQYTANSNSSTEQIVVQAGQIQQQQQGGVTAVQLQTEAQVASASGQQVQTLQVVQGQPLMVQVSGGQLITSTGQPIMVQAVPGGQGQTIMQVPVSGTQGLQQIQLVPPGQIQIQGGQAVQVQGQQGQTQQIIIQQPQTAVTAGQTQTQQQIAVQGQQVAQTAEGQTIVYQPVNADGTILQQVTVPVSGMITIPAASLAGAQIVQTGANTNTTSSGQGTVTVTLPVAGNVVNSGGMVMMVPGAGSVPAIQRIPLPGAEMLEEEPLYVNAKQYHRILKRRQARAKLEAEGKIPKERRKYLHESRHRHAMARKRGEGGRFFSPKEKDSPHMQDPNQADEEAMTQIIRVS

The target in data set [1] is T1, SOX9 (recombinant human) (Homo sapiens) (UniProt P48436).
T1 sequence (looked up, limits assumed): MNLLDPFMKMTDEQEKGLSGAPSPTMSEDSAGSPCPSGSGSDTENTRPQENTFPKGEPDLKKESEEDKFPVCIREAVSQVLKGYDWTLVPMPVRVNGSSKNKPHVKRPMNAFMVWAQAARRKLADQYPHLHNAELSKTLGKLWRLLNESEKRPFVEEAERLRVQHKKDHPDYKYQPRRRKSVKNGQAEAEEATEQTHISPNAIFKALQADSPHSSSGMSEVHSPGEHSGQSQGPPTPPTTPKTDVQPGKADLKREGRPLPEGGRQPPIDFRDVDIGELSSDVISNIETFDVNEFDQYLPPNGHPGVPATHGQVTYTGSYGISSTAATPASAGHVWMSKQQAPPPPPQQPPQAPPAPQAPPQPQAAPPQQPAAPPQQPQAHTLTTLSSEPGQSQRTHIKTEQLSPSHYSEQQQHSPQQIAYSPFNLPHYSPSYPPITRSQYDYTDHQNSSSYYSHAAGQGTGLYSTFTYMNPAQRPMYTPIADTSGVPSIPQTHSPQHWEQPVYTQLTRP
Briefly: EMSA. To be noted: EMSA: Active Motif Gelshift Chemiluminescent kit, buffer not stated, commercial protein, label: 5' biotin.

For data set [2], the target named is T2, SOX9 (endogenous, HCT116 nuclear extract) (Homo sapiens) (UniProt P48436).
T2 sequence (looked up, limits assumed): T1 sequence (looked up, limits assumed)
Kind of data set: pull-down (biotin oligo, western blot). To be noted: polyIC, Pull-down: 1x buffer from 5x stock (75 mM Hepes pH 7.9, 400 mM NaCl, 75 mM KCl, 0.1 mM EDTA, 5 mM DTT, 5 mM PMSF, 15% glycerol), i.e. 15 mM Hepes, 80 mM NaCl, 15 mM KCl, protein in an extract, label: 5' biotin.

Data set [3] concerns the target NF-YA (endogenous, HCT116 nuclear extract) (Homo sapiens) (UniProt P23511). Kind of data set: pull-down (biotin oligo, western blot). The following applies: polyIC, Pull-down: 1x buffer from 5x stock (75 mM Hepes pH 7.9, 400 mM NaCl, 75 mM KCl, 0.1 mM EDTA, 5 mM DTT, 5 mM PMSF, 15% glycerol), i.e. 15 mM Hepes, 80 mM NaCl, 15 mM KCl, protein in an extract, label: 5' biotin.

For at least one entry, the source does not settle the construct or the ends of the probe. For part of these data: A negative result means that nothing was seen under these conditions. For part of these data: Tags and fusion partners may be left off the protein sequences shown. For part of these data: Where cells or extracts were used, other partners may take part. For part of these data: The comparison behind a weaker result is the experiment's own reference, which may not be listed here.

Take “ATGACAAGGTCTTTTTGAAGTCACCTGGAATGCTCCCTTT (double strand) [RASSF3 oligo]”: the binding result in data set [1] is “binds”.
As for “TCCCGCCTCCCTAACCTGATTGGTTTATTCAAACAAACC (double strand) [WT TOP2A oligo]”, the figures for the binding result in data set [1] (without NF-Y), in data set [2] and in data set [3] were “no binding”, “binds” and “binds”, respectively.
“TCCCGCCTCCCTAACCTGTTTGGTTTATTCAAACAAACC (double strand) [mutated TOP2A oligo (MTOP2A)]”: the binding result in data set [2] and in data set [3] was “binds more weakly” each time.
